# Laboratory results: the supplement of paper PMC10849652
# Chains of the proteins cited; added tags and fusions are not shown. Lines headed by an entry give the natural chain unless they say otherwise; changes in a name come on top.
# UniProt Q6P1R3: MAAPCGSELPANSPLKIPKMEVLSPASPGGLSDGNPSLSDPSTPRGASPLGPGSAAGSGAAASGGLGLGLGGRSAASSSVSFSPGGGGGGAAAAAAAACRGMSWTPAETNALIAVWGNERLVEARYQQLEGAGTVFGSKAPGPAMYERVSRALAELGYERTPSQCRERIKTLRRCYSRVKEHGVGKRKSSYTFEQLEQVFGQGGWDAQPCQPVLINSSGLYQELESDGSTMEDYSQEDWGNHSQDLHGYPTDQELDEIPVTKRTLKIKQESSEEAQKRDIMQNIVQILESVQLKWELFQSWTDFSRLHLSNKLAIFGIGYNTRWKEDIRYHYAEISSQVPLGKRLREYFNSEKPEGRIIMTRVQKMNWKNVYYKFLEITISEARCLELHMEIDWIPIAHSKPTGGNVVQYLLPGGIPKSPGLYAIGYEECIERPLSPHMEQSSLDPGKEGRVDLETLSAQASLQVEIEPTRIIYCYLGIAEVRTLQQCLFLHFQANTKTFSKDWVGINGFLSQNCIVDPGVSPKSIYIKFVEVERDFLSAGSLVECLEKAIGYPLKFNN
# UniProt Q9HD23: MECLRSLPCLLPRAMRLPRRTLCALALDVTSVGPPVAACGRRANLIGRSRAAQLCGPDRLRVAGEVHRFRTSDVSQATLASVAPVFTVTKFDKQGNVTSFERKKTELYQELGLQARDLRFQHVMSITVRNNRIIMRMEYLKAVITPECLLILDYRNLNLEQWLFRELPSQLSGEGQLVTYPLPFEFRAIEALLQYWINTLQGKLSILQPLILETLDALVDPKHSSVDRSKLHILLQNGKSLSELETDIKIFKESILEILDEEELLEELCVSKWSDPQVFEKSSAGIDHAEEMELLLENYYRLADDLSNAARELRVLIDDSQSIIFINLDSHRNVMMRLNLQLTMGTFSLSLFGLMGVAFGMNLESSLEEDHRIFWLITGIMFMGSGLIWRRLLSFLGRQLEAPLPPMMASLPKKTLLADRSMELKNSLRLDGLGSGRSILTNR
# UniProt Q2M296: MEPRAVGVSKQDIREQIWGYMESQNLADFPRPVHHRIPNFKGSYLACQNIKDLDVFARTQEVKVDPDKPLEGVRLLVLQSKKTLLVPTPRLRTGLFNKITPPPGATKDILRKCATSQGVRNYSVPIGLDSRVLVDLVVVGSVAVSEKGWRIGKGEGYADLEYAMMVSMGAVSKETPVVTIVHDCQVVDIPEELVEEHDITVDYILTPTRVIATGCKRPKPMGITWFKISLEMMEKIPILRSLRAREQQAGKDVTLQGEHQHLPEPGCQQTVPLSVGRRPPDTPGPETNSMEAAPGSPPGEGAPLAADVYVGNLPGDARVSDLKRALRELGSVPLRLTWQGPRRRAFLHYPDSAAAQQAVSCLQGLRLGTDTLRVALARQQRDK
# UniProt Q9H2K0, whole entry, looked up: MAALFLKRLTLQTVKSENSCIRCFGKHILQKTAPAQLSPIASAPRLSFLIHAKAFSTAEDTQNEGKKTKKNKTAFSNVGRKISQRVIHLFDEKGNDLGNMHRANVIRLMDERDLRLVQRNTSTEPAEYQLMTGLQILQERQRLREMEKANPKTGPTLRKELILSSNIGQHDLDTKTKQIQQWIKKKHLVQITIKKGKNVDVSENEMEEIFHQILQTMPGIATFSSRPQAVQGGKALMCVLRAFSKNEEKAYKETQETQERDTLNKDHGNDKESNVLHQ
# UniProt Q9Y2Z2: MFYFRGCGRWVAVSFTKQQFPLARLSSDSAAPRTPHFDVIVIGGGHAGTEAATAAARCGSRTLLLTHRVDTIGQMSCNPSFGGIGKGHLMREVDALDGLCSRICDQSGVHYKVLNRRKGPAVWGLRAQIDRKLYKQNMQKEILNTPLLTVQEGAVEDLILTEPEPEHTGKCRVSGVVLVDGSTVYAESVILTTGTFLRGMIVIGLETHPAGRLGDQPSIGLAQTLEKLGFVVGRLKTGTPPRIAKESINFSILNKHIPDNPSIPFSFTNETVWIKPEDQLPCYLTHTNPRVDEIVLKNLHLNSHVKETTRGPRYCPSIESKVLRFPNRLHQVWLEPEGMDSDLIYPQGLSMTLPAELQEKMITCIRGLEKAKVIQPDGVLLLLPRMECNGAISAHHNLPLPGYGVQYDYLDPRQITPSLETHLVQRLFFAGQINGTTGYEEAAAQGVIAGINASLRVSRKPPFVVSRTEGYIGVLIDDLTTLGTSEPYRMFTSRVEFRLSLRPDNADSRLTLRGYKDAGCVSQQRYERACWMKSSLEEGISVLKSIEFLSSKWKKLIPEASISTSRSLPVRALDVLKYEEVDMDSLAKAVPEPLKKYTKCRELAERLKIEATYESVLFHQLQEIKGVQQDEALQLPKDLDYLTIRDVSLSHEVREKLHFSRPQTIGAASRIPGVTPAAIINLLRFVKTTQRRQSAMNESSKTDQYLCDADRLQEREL
# UniProt Q96HJ5: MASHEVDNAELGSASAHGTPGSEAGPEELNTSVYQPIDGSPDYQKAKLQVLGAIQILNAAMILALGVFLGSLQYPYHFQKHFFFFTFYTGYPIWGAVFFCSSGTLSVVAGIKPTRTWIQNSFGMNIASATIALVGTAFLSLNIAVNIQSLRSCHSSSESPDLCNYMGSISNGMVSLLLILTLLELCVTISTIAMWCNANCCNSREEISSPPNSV
# UniProt Q9H903: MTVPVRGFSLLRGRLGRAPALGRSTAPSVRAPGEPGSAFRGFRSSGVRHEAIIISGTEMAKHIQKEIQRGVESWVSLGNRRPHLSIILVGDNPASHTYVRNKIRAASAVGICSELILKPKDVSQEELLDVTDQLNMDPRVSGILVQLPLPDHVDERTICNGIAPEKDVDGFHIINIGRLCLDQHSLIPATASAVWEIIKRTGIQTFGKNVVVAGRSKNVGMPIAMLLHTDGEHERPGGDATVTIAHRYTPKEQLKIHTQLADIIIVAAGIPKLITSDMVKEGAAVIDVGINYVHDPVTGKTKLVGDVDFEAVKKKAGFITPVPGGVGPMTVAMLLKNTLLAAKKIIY
# UniProt P55157: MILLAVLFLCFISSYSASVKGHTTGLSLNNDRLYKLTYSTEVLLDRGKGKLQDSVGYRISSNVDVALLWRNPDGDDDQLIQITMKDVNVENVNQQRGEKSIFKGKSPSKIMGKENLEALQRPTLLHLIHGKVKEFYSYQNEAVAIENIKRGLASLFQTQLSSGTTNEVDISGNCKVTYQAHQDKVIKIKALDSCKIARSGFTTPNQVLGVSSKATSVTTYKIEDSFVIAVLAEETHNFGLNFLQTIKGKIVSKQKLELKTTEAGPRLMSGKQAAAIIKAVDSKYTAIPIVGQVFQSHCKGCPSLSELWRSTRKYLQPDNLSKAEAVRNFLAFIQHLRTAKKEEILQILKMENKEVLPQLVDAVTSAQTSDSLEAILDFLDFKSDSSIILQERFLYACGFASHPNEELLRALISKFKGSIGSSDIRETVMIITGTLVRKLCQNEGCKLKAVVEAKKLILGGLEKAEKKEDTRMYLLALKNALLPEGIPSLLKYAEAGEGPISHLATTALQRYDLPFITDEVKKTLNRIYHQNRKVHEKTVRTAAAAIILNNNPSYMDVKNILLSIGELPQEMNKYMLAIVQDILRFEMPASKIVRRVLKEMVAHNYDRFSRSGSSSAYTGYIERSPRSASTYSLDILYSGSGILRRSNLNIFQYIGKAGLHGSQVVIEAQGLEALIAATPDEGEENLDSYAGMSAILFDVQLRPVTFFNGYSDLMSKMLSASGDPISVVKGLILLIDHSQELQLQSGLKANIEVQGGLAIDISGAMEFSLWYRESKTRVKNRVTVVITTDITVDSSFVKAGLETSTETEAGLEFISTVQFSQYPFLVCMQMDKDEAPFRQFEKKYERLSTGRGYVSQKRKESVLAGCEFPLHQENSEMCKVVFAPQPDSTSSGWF
# UniProt Q14872: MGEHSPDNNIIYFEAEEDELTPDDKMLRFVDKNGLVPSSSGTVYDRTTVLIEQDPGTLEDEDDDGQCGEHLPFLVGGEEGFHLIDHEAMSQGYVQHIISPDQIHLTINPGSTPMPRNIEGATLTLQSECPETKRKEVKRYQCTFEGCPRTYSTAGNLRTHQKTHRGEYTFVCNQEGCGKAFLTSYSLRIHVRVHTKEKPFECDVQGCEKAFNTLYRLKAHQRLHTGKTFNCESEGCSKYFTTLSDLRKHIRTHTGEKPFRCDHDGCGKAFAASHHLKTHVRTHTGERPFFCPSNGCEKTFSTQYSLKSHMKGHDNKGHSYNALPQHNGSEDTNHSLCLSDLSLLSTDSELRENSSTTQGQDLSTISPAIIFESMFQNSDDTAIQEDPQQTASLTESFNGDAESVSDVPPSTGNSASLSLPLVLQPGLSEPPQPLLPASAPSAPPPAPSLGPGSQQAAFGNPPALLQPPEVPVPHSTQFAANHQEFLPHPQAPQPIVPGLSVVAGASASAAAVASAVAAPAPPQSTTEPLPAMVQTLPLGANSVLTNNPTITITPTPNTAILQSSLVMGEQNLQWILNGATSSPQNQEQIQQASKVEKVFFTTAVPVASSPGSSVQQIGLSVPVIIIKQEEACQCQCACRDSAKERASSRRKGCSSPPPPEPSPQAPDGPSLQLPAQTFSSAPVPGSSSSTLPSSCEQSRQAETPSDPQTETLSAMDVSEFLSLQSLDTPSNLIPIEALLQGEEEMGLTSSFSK
# UniProt Q9NXD2: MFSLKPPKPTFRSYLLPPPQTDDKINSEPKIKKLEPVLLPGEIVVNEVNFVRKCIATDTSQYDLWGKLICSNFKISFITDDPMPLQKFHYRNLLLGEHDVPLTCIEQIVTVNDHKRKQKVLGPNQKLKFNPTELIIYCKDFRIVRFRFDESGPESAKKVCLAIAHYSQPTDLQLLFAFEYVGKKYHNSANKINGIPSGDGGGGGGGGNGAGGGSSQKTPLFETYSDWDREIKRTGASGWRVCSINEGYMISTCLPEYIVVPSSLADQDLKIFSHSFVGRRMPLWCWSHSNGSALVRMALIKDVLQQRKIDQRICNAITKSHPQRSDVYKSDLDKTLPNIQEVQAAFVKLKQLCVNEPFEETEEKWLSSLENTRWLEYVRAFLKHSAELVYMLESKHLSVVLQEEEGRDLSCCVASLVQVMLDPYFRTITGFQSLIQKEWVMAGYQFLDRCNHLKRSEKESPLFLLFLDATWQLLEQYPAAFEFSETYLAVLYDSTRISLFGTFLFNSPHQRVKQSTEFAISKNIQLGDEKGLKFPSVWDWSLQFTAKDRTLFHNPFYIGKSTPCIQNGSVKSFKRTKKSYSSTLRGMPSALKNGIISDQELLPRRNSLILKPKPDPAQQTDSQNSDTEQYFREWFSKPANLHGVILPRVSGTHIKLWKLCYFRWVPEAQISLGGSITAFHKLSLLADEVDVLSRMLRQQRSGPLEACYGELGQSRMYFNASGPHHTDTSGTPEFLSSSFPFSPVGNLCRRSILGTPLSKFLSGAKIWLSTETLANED
# UniProt Q9NYA4: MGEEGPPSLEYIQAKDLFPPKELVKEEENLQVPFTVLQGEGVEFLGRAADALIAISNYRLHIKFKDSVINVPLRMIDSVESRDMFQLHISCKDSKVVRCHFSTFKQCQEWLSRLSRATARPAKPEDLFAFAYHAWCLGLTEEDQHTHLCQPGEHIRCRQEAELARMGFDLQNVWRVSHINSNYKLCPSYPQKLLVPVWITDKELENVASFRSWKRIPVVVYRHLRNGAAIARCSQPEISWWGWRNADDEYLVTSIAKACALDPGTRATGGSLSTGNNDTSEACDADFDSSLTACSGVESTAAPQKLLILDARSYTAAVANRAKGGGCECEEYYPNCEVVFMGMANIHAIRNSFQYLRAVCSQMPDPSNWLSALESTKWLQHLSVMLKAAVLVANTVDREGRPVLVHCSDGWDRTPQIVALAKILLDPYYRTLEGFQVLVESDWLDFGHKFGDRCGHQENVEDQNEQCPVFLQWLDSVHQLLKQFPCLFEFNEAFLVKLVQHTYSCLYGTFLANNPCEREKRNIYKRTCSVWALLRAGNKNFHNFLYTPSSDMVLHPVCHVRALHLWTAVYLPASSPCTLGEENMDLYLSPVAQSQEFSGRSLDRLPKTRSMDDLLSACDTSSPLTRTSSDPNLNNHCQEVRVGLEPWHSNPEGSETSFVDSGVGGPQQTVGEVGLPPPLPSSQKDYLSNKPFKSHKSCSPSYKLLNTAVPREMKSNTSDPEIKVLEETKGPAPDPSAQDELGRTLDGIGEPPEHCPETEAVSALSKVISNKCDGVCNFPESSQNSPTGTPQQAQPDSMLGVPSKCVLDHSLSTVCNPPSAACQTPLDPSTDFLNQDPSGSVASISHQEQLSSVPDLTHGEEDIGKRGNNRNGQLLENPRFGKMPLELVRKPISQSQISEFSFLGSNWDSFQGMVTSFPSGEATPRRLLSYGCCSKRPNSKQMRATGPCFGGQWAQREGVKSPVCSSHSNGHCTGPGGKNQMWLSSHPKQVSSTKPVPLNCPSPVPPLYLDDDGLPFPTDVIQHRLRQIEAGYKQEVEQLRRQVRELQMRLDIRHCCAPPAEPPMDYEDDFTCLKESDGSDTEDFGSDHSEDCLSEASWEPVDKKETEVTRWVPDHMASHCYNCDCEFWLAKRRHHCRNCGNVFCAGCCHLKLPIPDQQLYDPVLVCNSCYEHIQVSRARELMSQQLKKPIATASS
# The list shows a part of the results.
# Tests used:
# Test in all cases: log2 fold change, soluble protein after heating vs DMSO (PISA); higher = thermal stabilisation; K562 lysate, 10 uM; active = over 0.2 and 3.5 SD of the protein, either way, in both replicates (recomputed)
# [1] = compound: CCCS(=O)(=O)Nc1ccc(F)c(C(=O)c2c[nH]c3ncc(Cl)cc23)c1F
# In short: (§1)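 The values are log-two fold changes in thermal stability compared with solvent controls and come from duplicates. They were obtained by TMTpro 16plex LC-MS/MS, with channel sums equalised, on the supernatant after 21,000xg for 90 min. That supernatant came from crude K562 extract at 1 mg/mL protein treated with 10 μM compound for 30 min, heated for 3 min across 48°C-58°C, pooled and brought to 0.5% NP-40 at 4°C.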
# [2] = compound: CCN(CCCOc1ccc2c(Nc3cc(CC(=O)Nc4cccc(F)c4)[nH]n3)ncnc2c1)CCOP(=O)(O)O [barasertib]
# In short: as §1
# [3] = compound: CC[C@@H]1C(=O)N(C)c2cnc(Nc3ccc(C(=O)N[C@H]4CC[C@H](N5CCN(CC6CC6)CC5)CC4)cc3OC)nc2N1C(C)C [volasertib]
# In short: as §1
# [4] = compound: CCn1c(C(=O)N(C2CC2)C2CC2)cc2c3c(ncn3C)c(Nc3cc(C)n(C)n3)nc21
# In short: as §1
# [5] = compound: CCn1cc(-c2ccnc3[nH]c(-c4cccc(CN(C)C)c4)cc23)c(-c2ccc(NC(=O)N(C)C)cc2)n1
# In short: as §1
# [6] = compound: CN1CCC(CNc2ccc3ncc(-c4cccc(OC(F)(F)F)c4)n3n2)CC1
# In short: as §1
# [7] = compound: CN1CC[C@H](c2c(O)cc(O)c3c(=O)cc(-c4ccccc4Cl)oc23)[C@H](O)C1 [alvocidib]
# In short: as §1
# [8] = compound: CN1CCc2c(c3ccccc3n2Cc2ccc(C(=O)NO)cc2)C1 [Tubastatin A]
# In short: as §1
# [9] = compound: COc1cc2nc(-c3cc(F)ccc3O)nc(N[C@@H]3CNC[C@H]3C(C)(C)O)c2cc1OC
# In short: as §1
# [10] = compound: CC[C@@H]1C(=O)N(C)c2cnc(Nc3ccc(C(=O)NC4CCN(C)CC4)cc3OC)nc2N1C1CCCC1
# In short: as §1
# [11] = compound: CN1CCN(CCOc2cc(OC3CCOCC3)c3c(Nc4c(Cl)ccc5c4OCO5)ncnc3c2)CC1 [saracatinib]
# In short: as §1
# [12] = compound: CN1CCN(c2nc(C3=C(c4c[nH]c5ccccc45)C(=O)NC3=O)c3ccccc3n2)CC1 [sotrastaurin]
# In short: as §1
# [13] = compound: CNC(=O)C1=CC=CC=C1NC2=NC(=NC=C2Cl)NC3=C(C=C(C=C3)N4CCOCC4)OC
# In short: as §1
# [14] = compound: CNc1nc(-c2ccc3c(N)n[nH]c3c2)cc(N2C[C@@H](C(=O)NC3CCCCC3)CC[C@H]2C)n1
# In short: as §1
# [15] = compound: COC(=O)N[C@@H](C)CNc1nccc(-c2cn(C(C)C)nc2-c2cc(Cl)cc(NS(C)(=O)=O)c2F)n1 [encorafenib]
# In short: as §1
# [16] = compound: COC(=O)[C@H](CCSC)NC(=O)C1=C(C=C(C=C1)NC[C@H](CS)N)C2=CC=CC=C2
# In short: as §1
# [17] = compound: COc1cc(Nc2ncc3c(n2)-c2ccc(Cl)cc2C(c2c(F)cccc2OC)=NC3)ccc1C(=O)O [alisertib]
# In short: as §1
# [18] = compound: COc1cc2ncnc(Nc3ccc(F)c(Cl)c3)c2cc1OCCCN1CCOCC1 [gefitinib]
# In short: as §1
# [19] = compound: CCCS(=O)(=O)Nc1ccc(F)c(C(=O)c2c[nH]c3ncc(-c4ccc(Cl)cc4)cc23)c1F [vemurafenib]
# In short: as §1
# [20] = compound: CNC(=O)c1ccc(Nc2ncc(C(F)(F)F)c(NCc3nccnc3N(C)S(C)(=O)=O)n2)cc1 [defactinib]
# In short: as §1
Target,log2 fold change [1],log2 fold change [2],log2 fold change [3],log2 fold change [4],log2 fold change [5],log2 fold change [6],log2 fold change [7],log2 fold change [8],log2 fold change [9],log2 fold change [10],log2 fold change [11],log2 fold change [12],log2 fold change [13],log2 fold change [14],log2 fold change [15],log2 fold change [16],log2 fold change [17],log2 fold change [18],log2 fold change [19],log2 fold change [20]
MUC19 (UniProt Q7Z5P9),inactive: -0.083,inactive: -0.085,inactive: -0.024,inactive: -0.114,inactive: 0.094,inactive: 0.013,inactive: 0.035,inactive: 0.082,inactive: 0.019,,,,,,,,,,,
MRPL27 (UniProt Q9P0M9),inactive: -0.051,inactive: -0.01,inactive: 0.017,inactive: -0.006,active: 0.926,inactive: -0.218,inactive: 0.082,inactive: -0.017,inactive: 0,inactive: 0.076,inactive: 0.009,inactive: 0.05,inactive: 0.016,inactive: -0.028,inactive: -0.047,inactive: 0.008,inactive: -0.019,inactive: 0.022,,
MT-ND6 (UniProt P03923),inactive: 0.151,,inactive: 0.037,inactive: -0.153,inactive: -0.499,inactive: -0.062,inactive: -0.048,inactive: 0.136,inactive: -0.03,,,inactive: 0.003,inactive: -0.086,,,,,,,
MSANTD2 (UniProt Q6P1R3),,,,,inactive: -0.138,inactive: 0.057,inactive: 0.029,,,inactive: -0.063,inactive: 0.011,inactive: 0.075,inactive: 0.031,inactive: 0.239,inactive: 0.15,inactive: -0.072,,,inactive: 0.183,inactive: -0.124
MRS2 isoform 2 (UniProt Q9HD23),,,,,,,,,,,,inactive: -0.051,,,,,inactive: 0.105,inactive: 0.057,,
MTHFSD (UniProt Q2M296),inactive: 0.086,inactive: 0.087,inactive: 0.031,,,,,,inactive: -0.028,inactive: 0.034,inactive: 0.05,inactive: -0.025,inactive: 0.035,inactive: 0.02,inactive: 0.023,inactive: -0.051,inactive: 0.148,inactive: -0.151,,
MTHFR (UniProt F8W9T8),,inactive: 0.218,,,,,,,,,,,,,,,inactive: -0.136,inactive: 0.087,,
MTURN (UniProt Q8N3F0),,,,inactive: 0.045,,,,inactive: -0.048,,inactive: 0.06,inactive: -0.045,inactive: 0.017,,inactive: 0.003,inactive: 0.021,inactive: -0.033,,,,
MTIF3 (UniProt Q9H2K0),inactive: 0.012,inactive: 0.055,inactive: 0.082,inactive: -0.017,inactive: -0.013,inactive: 0.009,inactive: 0.01,inactive: 0.059,inactive: -0.037,,inactive: 0.011,,inactive: -0.063,inactive: 0.072,,,inactive: 0,inactive: 0.086,inactive: 0.073,inactive: -0.008
MRPS15 (UniProt P82914),inactive: 0.036,inactive: 0.104,inactive: -0.016,inactive: -0.048,inactive: -0.042,inactive: 0.007,inactive: -0.043,inactive: -0.018,inactive: 0.062,inactive: -0.039,inactive: 0.024,inactive: -0.016,inactive: 0.002,inactive: 0.231,inactive: -0.047,inactive: 0.073,inactive: 0.026,inactive: -0.031,,
MTO1 isoform 4 (UniProt Q9Y2Z2),,inactive: -0.148,,inactive: 0.063,inactive: 0.105,inactive: 0.031,inactive: -0.025,inactive: -0.086,,inactive: -0.014,inactive: 0.011,inactive: 0.031,inactive: -0.006,inactive: 0.059,inactive: -0.014,inactive: 0.098,inactive: 0.195,inactive: -0.048,inactive: 0.028,inactive: 0.005
MS4A3 (UniProt Q96HJ5),inactive: 0.089,,inactive: 0.054,,,,,,inactive: 0.183,inactive: 0.036,,inactive: -0.031,,,inactive: 0.017,inactive: -0.12,,,inactive: -0.06,inactive: -0.07
MTRF1 isoform 2 (UniProt O75570),,,,,inactive: -0.373,inactive: 0.033,inactive: -0.06,,,,,inactive: -0.09,,,,,,,,
MRPL34 (UniProt Q9BQ48),inactive: -0.018,inactive: 0.016,inactive: -0.283,,inactive: 0.035,inactive: -0.014,inactive: 0.022,,inactive: 0.017,inactive: 0.129,inactive: -0.348,inactive: 0.006,,inactive: 0.071,inactive: 0.167,inactive: 0.259,,,,
MTFMT (UniProt Q96DP5),inactive: 0.104,,inactive: -0.133,,inactive: -0.812,inactive: -0.085,inactive: -0.255,,inactive: 0.222,,inactive: -0.17,inactive: -0.129,inactive: 0.043,inactive: 0.052,,,inactive: -0.069,inactive: -0.211,,
MTG1 (UniProt Q9BT17),,,,,inactive: 0.073,inactive: -0.036,inactive: -0.082,,,,,,,,,,inactive: 0.09,inactive: -0.294,,
MRTFA (UniProt Q969V6),,inactive: 0.112,,inactive: 0.157,inactive: 0.016,inactive: 0,inactive: 0.041,inactive: -0.017,,inactive: 0.086,inactive: -0.102,inactive: -0.022,inactive: 0.034,inactive: -0.045,inactive: 0.075,inactive: -0.088,inactive: -0.029,inactive: -0.057,inactive: -0.05,inactive: 0.226
MTHFD1 (UniProt V9GZ32),inactive: 0.008,,inactive: -0.145,,,,,,inactive: 0,,,,,,,,inactive: 0.108,inactive: -0.073,,
MTHFD2L (UniProt Q9H903),,inactive: 0.192,,,inactive: -0.133,inactive: 0.005,inactive: -0.037,,,,,inactive: 0.038,inactive: 0.045,,,,,,,
MTTP (UniProt P55157),,inactive: 0.092,,,,,,,,,,,,,,,,,,
MSL2 (UniProt Q9HCI7),,,,inactive: -0.199,,,,inactive: 0.002,,inactive: 0.166,,inactive: 0.033,inactive: 0.033,,inactive: 0.057,inactive: 0.056,inactive: -0.034,inactive: 0.002,inactive: 0.006,inactive: 0.07
MTF1 (UniProt Q14872),,,,,inactive: 0.238,inactive: -0.115,inactive: 0.106,,,,,,,,,,,,,
MRPL24 (UniProt Q96A35),inactive: 0.039,,inactive: -0.042,inactive: 0.037,inactive: 0.061,inactive: -0.097,inactive: 0.033,inactive: 0.01,inactive: 0.014,inactive: 0.011,inactive: 0.019,inactive: -0.021,inactive: 0.01,inactive: 0.075,inactive: 0.018,inactive: 0.007,inactive: 0.014,inactive: -0.052,inactive: 0.018,inactive: 0.025
MUC5AC (UniProt P98088),,,,inactive: 0,,,,inactive: -0.03,,,,,,,,,inactive: -0.233,inactive: 0.013,,
MTMR10 (UniProt Q9NXD2),inactive: 0.002,,inactive: -0.072,inactive: -0.094,,,,inactive: 0.116,inactive: 0,,inactive: 0.049,inactive: -0.185,inactive: -0.01,inactive: -0.068,,,inactive: 0.029,inactive: 0.1,,
MSL3 (UniProt Q8N5Y2),,,,inactive: -0.089,inactive: -0.018,inactive: 0.009,inactive: -0.095,inactive: -0.009,,inactive: -0.123,inactive: 0.085,inactive: 0.007,inactive: -0.065,inactive: -0.053,inactive: 0.121,inactive: 0.011,inactive: -0.028,inactive: -0.008,inactive: -0.015,inactive: -0.055
MTMR4 (UniProt Q9NYA4),inactive: -0.013,,inactive: 0.013,inactive: 0.045,inactive: -0.04,inactive: -0.01,inactive: 0.033,inactive: -0.108,inactive: -0.103,,inactive: -0.121,inactive: -0.014,inactive: 0.013,inactive: -0.014,,,inactive: -0.074,inactive: -0.093,inactive: 0.19,inactive: 0.034

# Some entries already given, showing only log2 fold change [17] and log2 fold change [19].
Target	log2 fold change [17]	log2 fold change [19]
MTIF3 (UniProt Q9H2K0)	inactive: 0	inactive: 0.073
MRPS15 (UniProt P82914)	inactive: 0.026	

# A different layout for some results above.
Target	log2 fold change [1]	log2 fold change [2]	log2 fold change [3]	log2 fold change [4]	log2 fold change [5]	log2 fold change [6]	log2 fold change [7]	log2 fold change [8]	log2 fold change [9]	log2 fold change [10]	log2 fold change [11]	log2 fold change [12]	log2 fold change [13]	log2 fold change [14]	log2 fold change [15]	log2 fold change [16]	log2 fold change [17]	log2 fold change [18]	log2 fold change [19]	log2 fold change [20]
MSL3 (UniProt Q8N5Y2)				inactive: -0.089	inactive: -0.018	inactive: 0.009	inactive: -0.095	inactive: -0.009		inactive: -0.123	inactive: 0.085	inactive: 0.007	inactive: -0.065	inactive: -0.053	inactive: 0.121	inactive: 0.011	inactive: -0.028	inactive: -0.008	inactive: -0.015	inactive: -0.055
MTMR4 (UniProt Q9NYA4)	inactive: -0.013		inactive: 0.013	inactive: 0.045	inactive: -0.04	inactive: -0.01	inactive: 0.033	inactive: -0.108	inactive: -0.103		inactive: -0.121	inactive: -0.014	inactive: 0.013	inactive: -0.014			inactive: -0.074	inactive: -0.093	inactive: 0.19	inactive: 0.034
